# Counter-ions that a name gives are not always drawn. Among all 1,200 compounds or so, about 50 (4%) showed activity. No stated cut-off is given here; in the data, all actives reach 1.3 or more but so do some inactives. Some of the results follow.
# Tested on: Lgr5 (MarsCy1-Lgr5-EGFP, U2OS)
# Assay: cell-surface Lgr5 expression (SCi1 fluorescence, background-subtracted) relative to WT DMSO (fold of DMSO control); higher = more Lgr5 at the plasma membrane, active = hit call of the paper
# Details: U2OS MarsCy1-Lgr5-EGFP stable; treatment time: overnight; 16 µM; library: Johns Hopkins Clinical Compound Library
row,Compound,cell-surface Lgr5 expression
1,O=C(Cn1ccnc1[N+](=O)[O-])NCc1ccccc1 [Benznidazole (N-Benzyl-2-nitro-1H-imidazole-1-acetamide)],inactive: 0.909
2,Clc1ccc2c(c1)C(N1CCNCC1)=Nc1ccccc1O2 [Amoxapine],inactive: 0.373
3,O=C(O)CCc1nc(-c2ccccc2)c(-c2ccccc2)o1 [Oxaprozin],inactive: 0.961
4,N.O.O.O.O.O.O.O.O.O.O.O.O.O=S(=O)([O-])O.O=S(=O)([O-])[O-].[Al+3] [Aluminum ammonium sulfate dodecahydrate],inactive: 0.56
5,OC[C@@H](O)[C@@H](O)[C@H](O)[C@H](O)CO [D-Mannitol],inactive: 0.893
6,C=CCc1ccc(O)c(OC)c1 [Eugenol],inactive: 0.969
7,CC(=O)OCC(=O)NCCCOc1cccc(CN2CCCCC2)c1 [Roxatidine acetate HCl],inactive: 1.13
8,CCn1cc(C(=O)O)c(=O)c2cc(F)c(N3CCNCC3)nc21 [Enoxacin],inactive: 0.912
9,CO/N=C(\C(=O)N[C@@H]1C(=O)N2C(C(=O)O)=CCS[C@H]12)c1csc(N)n1 [Ceftizoxime],inactive: 1.09
10,CC(C(=O)O)c1cccc(Oc2ccccc2)c1 (stereo not drawn) [Fenoprofen calcium salt hydrate],inactive: 1.15
11,Oc1ccc(C2CNCCc3c2cc(O)c(O)c3Cl)cc1 (stereo not drawn) [Fenoldopam],inactive: 1.24
12,C[C@](N)(Cc1ccc(O)cc1)C(=O)O [Metyrosine (L-α-Methyltyrosine)],inactive: 1.17
13,CS(=O)(=O)c1ccc([C@@H](O)[C@@H](CF)NC(=O)C(Cl)Cl)cc1 [Florfenicol],inactive: 1.01
14,CCN(CC)CCCC(C)Nc1ccnc2cc(Cl)ccc12 (stereo not drawn) [Chloroquine diphosphate salt],inactive: 1.53
15,C[N+](C)(C)CCOP(=O)(O)OP(=O)([O-])OC[C@H]1O[C@@H](n2ccc(N)nc2=O)[C@H](O)[C@@H]1O [Citicoline sodium (Cytidine-5'-diphosphocholine)],inactive: 1.07
16,Nc1ccc(S(=O)(=O)NC(=O)c2ccccc2)cc1 [Sulfabenzamide],inactive: 1.2
17,CCC(=C(CC)c1ccc(O)cc1)c1ccc(O)cc1 [Diethylstilbesterol],inactive: 1.29
18,C1N2CN3CN1CN(C2)C3 [Methenamine mandelate (Hexamethylenetetramine mandelate)],inactive: 1.19
19,C1N2CN3CN1CN(C2)C3 [Methenamine (Hexamethylenetetramine)],inactive: 1.15
20,O=C(O)C1=C[C@@H](O)[C@@H](O)[C@H](O)C1 [Shikimic acid],inactive: 1.04
21,CCCCCN(C)CCC(O)(P(=O)(O)O)P(=O)(O)O [Ibandronate],inactive: 0.811
22,C[n+]1c2cc(N)ccc2cc2ccc(N)cc21.Nc1ccc2cc3ccc(N)cc3nc2c1 [Acriflavine hydrochloride],inactive: 1.44

# Looked up one by one from above:
row,Compound,cell-surface Lgr5 expression
17,CCC(=C(CC)c1ccc(O)cc1)c1ccc(O)cc1 [Diethylstilbesterol],inactive: 1.29
12,C[C@](N)(Cc1ccc(O)cc1)C(=O)O [Metyrosine (L-α-Methyltyrosine)],inactive: 1.17

# Following part:

row,Compound,cell-surface Lgr5 expression
1,CCCc1cc(C(N)=S)ccn1 [Protionamide],inactive: 1.13
2,C=C1CC[C@H](O)C/C1=C/C=C1\CCC[C@]2(C)[C@@H]([C@H](C)CCCC(C)C)CC[C@@H]12 [Cholecalciferol (Vitamin D3)],inactive: 1
3,C[C@H]1O[C@H](O[C@H]2[C@H](O)[C@@H](O)[C@@H](O[C@H]3[C@H](O)[C@@H](O)C(O)O[C@@H]3CO)O[C@@H]2CO)[C@H](O)[C@@H](O)[C@@H]1N[C@H]1C=C(CO)[C@@H](O)[C@H](O)[C@H]1O (stereo partly drawn) [Acarbose],inactive: 1.02
4,CC(C)(CO)[C@@H](O)C(=O)NCCC(=O)NCCSSCCNC(=O)CCNC(=O)[C@H](O)C(C)(C)CO [Pantethine (D-Pantethine)],inactive: 1.15
5,N=C(N)NC(=N)NCCc1ccccc1 [Phenformin hydrochloride],inactive: 0.756
6,NCCc1c[nH]cn1 [Histamine],inactive: 1.14
7,OC(Cn1cncn1)(Cn1cncn1)c1ccc(F)cc1F [Fluconazole],inactive: 0.884
8,CC[N+](C)(C)c1cccc(O)c1 [Edrophonium chloride],inactive: 0.605
9,OCCN1CCN(CC/C=C2/c3ccccc3Sc3ccc(C(F)(F)F)cc32)CC1 [cis(Z)-Flupenthixol dihydrochloride],inactive: 1.1
10,Cc1cn[nH]c1 [Fomepizole (4-methylpyrazole)],inactive: 0.991
11,CC(=O)OCC(=O)[C@@]1(O)CC[C@H]2[C@@H]3CCC4=CC(=O)C=C[C@]4(C)[C@@]3(Cl)[C@@H](Cl)C[C@@]21C [Dichlorisone acetate],active: 1.55
12,CCCCN(CCCC)CCCOC(=O)c1ccc(N)cc1 [Butacaine],active: 1.62
13,O.O.O.O.O.O.O.O.O.O.O.O.O=P([O-])([O-])[O-].[Na+].[Na+].[Na+] [Sodium phosphate dodecahydrate],inactive: 1.07
14,CC[N+](C)(CC)CCOC(=O)C1c2ccccc2Oc2ccccc21 [Methantheline bromide],inactive: 0.987
15,CC(=O)OCC(=O)[C@@]1(O)CC[C@H]2[C@@H]3CCC4=CC(=O)CC[C@]4(C)[C@@]3(F)[C@@H](O)C[C@@]21C,active: 1.35
16,NS(=O)(=O)c1cc(C2(O)NC(=O)c3ccccc32)ccc1Cl (stereo not drawn) [Chlorthalidone],inactive: 1.01
17,CCCCCCCCCCCCCCCC(=O)OC/C=C(C)/C=C/C=C(C)/C=C/C1=C(C)CCCC1(C)C [Vitamin A palmitate (Retinol palmitate)],inactive: 0.785
18,C=CC(N)CCC(=O)O (stereo not drawn) [Vigabatrin],active: 1.52
19,Oc1cc(O)c2c(c1)O[C@H](c1ccc(O)c(O)c1)[C@@H](O)C2 [Cianidanol (Catechin)],inactive: 1.15
20,CC(N/C(=N\C#N)Nc1ccncc1)C(C)(C)C (stereo not drawn) [Pinacidil],inactive: 1.13
21,CC[N+](C)(CC)CCOC(=O)C(O)(c1ccccc1)C1CCCCC1 (stereo not drawn) [Oxyphenonium bromide],inactive: 1.16
